Results taken from patent US7223769B2, “Pyrimidine compounds and their use as pesticides” (Sumitomo Chemical Company, Limited, priority 2002, dated 2007).
Some of these results come from one statement about several compounds together.

Tested on: Aphis gossypii (cotton aphid)
Test: Test Example 1: spray on cucumber plants carrying Aphis gossypii, preventive value
Type: in vivo
Conditions: 500 ppm spray solution, 20 ml/cup, cucumber plant with about twenty Aphis gossypii, sixth day after the application

SMILES | preventive value [%]
CC#CCOc1cc(OC(C(C)C)C(C)C)ncn1 [present compound (30), 4-(2-butynyloxy)-6-(1-isopropyl-2-methylpropyloxy)pyrimidine] | ≥ 90
CC#CCOc1cc(OC(C)C(C)(C)OC)ncn1 (centres unmarked) [present compound (31), 4-(2-butynyloxy)-6-(2-methoxy-1,2-dimethylpropyloxy)pyrimidine] | ≥ 90
